Bridges are numbered along the chain shown (N, C = ends). [ ]: non-standard residue; d: D form. NMeR = CN[C@@H](CCCNC(=N)N)C(=O)O; AllylGly = C=CC[C@H](N)C(=O)O; NMeK = CN[C@@H](CCCCN)C(=O)O

Data set [1] can be described thus: peptide synthesis. Conditions: whole synthesis.
A short description of data set [2]: solid-phase peptide synthesis. Conditions: whole synthesis, scale 0.2 mmol.
Data set [3] in a line: solid-phase peptide synthesis. Conditions: whole synthesis; for final HPLC purity: 214 nm; for final HPLC purity / isolated yield: scale of the general procedure 0.1 mmol.
Data set [4] is described as follows: general procedure: Fmoc solid-phase peptide synthesis; HMPB-AM resin; HCTU/DIPEA. The conditions noted are these: whole synthesis, scale 0.1 mmol.

On to “(CH 3 ) 2 CH 2 CH 2 OCO-NH-VDCFLSRPTEKT-CO2H (N-terminal isopentyloxycarbonyl cap)”, for which, in data set [1], the “final HPLC purity” value is on record as “ca. 98%” and the isolated yield was 49% yield.
The corresponding values for “(CH 3 ) 2 CH 2 CH 2 OCO-NH-VDCFLSRPTEKT-CONH 2” are “ca. 98%” and 49% yield.
Consider CFLSRPTEKTVD-COS-CH2CH2Ala-OH, for which the crude mass in data set [2] was found to be 271 mg.
As for “CH 3 CH 2 CH 2 CO-NH-VDCFLSRPTEKT-CO2H (N-terminal butyryl cap)”, in data set [1], the “final HPLC purity” value is “ca. 98%” and the isolated yield was determined as 44% yield.
Regarding “CH 3 CH 2 CH 2 CO-NH-VDCFLSRPTEKT-CONH 2 (N-butanoyl; C-terminal amide)”, in data set [1], the “final HPLC purity” value was “ca. 98%” and the isolated yield is on record as 44% yield.
The corresponding values for “CH 3 CH 2 OCO-NH-VDCFLSRPTEKT-CO2H (N-ethoxycarbonyl)” are “ca. 97%” and 26% yield.
The corresponding values for “CH 3 CH 2 OCO-NH-VDCFLSRPTEKT-CONH 2 (N-ethoxycarbonyl; C-terminal amide)” are “ca. 96%” and 43% yield.
The corresponding values for “H2N-VDCFLSRPTEKT-CH 2 OH (C-terminal alcohol)” are “ca. 97%” and 2% yield.
Take “H2N-VDCFLSRPTEKT-COSCH 2 CH 2 Gly-CO 2 H (C-terminal thioester to Gly)”: in data set [1], the “final HPLC purity” value was “ca. 97%”.
As for H2N-VDCFLSRPTEkT-CO2H, in data set [3], the “final HPLC purity” value is recorded as “ca. 99%” and the isolated yield was 26%. In addition, in data set [3] (scale 0.1 mmol), the isolated mass is reported as 36.3 mg.
The corresponding values for H2N-VDCFLSrPTEKT-CO2H are “ca. 97%”, 16% and 22.3 mg.
For “H-VDCFLSRPTE[NMeK]T-OH (SMILES CC(C)C[C@H](NC(=O)[C@H](Cc1ccccc1)NC(=O)[C@H](CS)NC(=O)[C@H](CC(=O)O)NC(=O)[C@@H](N)C(C)C)C(=O)N[C@@H](CO)C(=O)N[C@@H](CCCNC(=N)N)C(=O)N1CCC[C@H]1C(=O)N[C@H](C(=O)N[C@@H](CCC(=O)O)C(=O)N(C)[C@@H](CCCCN)C(=O)N[C@H](C(=O)O)[C@@H](C)O)[C@@H](C)O)”, in data set [3], the isolated mass was 66.2 mg, the “final HPLC purity” value is “ca. 99%” and the isolated yield came to 47%.
Take “H-VDCFLS[NMeR]PTEKT-OH (SMILES CC(C)C[C@H](NC(=O)[C@H](Cc1ccccc1)NC(=O)[C@H](CS)NC(=O)[C@H](CC(=O)O)NC(=O)[C@@H](N)C(C)C)C(=O)N[C@@H](CO)C(=O)N(C)[C@@H](CCCNC(=N)N)C(=O)N1CCC[C@H]1C(=O)N[C@H](C(=O)N[C@@H](CCC(=O)O)C(=O)N[C@@H](CCCCN)C(=O)N[C@H](C(=O)O)[C@@H](C)O)[C@@H](C)O)”: in data set [3], the isolated mass is 43.2 mg, the “final HPLC purity” value is on record as “ca. 96%” and the isolated yield worked out at 31%.
On to “H-[AllylGly]VDCFLSRPTEKT[AllylGly]-OH (staple 1-14; SMILES CC(C)C[C@@H]1NC(=O)[C@H](Cc2ccccc2)NC(=O)[C@H](CS)NC(=O)[C@H](CC(=O)O)NC(=O)[C@H](C(C)C)NC(=O)[C@@H](N)CC=CC[C@@H](C(=O)O)NC(=O)[C@H]([C@@H](C)O)NC(=O)[C@H](CCCCN)NC(=O)[C@H](CCC(=O)O)NC(=O)[C@H]([C@@H](C)O)NC(=O)[C@@H]2CCCN2C(=O)[C@H](CCCNC(=N)N)NC(=O)[C@H](CO)NC1=O)”, for which, in data set [3], the “final HPLC purity” value is on record as “ca. 95%” and the isolated yield turned out to be 1.4%. In data set [4], the isolated mass came out at 2.26 mg.
As to “H-[AllylGly]VDCFLSRPTE[AllylGly]T-OH (staple 1-12; SMILES CC(C)C[C@@H]1NC(=O)[C@H](Cc2ccccc2)NC(=O)[C@H](CS)NC(=O)[C@H](CC(=O)O)NC(=O)[C@H](C(C)C)NC(=O)[C@@H](N)CC=CC[C@@H](C(=O)N[C@H](C(=O)O)[C@@H](C)O)NC(=O)[C@H](CCC(=O)O)NC(=O)[C@H]([C@@H](C)O)NC(=O)[C@@H]2CCCN2C(=O)[C@H](CCCNC(=N)N)NC(=O)[C@H](CO)NC1=O)”, in data set [3], the isolated mass is 3.47 mg, the “final HPLC purity” value is on record as “ca. 95%” and the isolated yield is listed as 2.4% yield.
Regarding “N 3 -VDCFLSRPTEKT-CO2H (N-terminal azide)”, in data set [1], the “final HPLC purity” value is “ca. 95%” and the isolated yield came to 18% yield.
The corresponding values for PhCO-NH-VDCFLSRPTEKT-CO2H (N-benzoyl) are “ca. 96%” and 41% yield.
The corresponding values for PhCO-NH-VDCFLSRPTEKT-CONH 2 are “ca. 99%” and 37% yield.

These data come from PMC9513234 (Frontiers in Chemistry, 2022).
